About 9,100 (2.5%) of roughly 360,000 compounds were called active. The shares of active, inactive and inconclusive entries below differ from those in the screen. Cut-off read from the data, not from the text of the source: active = max response below about -50%; inconclusive = no clear call, values can overlap the other calls; inactive = above that.
Target: D(3) dopamine receptor (Homo sapiens) (UniProt P35462)
Test: qHTS of D3 Dopamine Receptor Antagonist: qHTS
Conditions: D3R cells, DiscoveRx beta-arrestin luminescence, antagonist mode; hits give low values
In short: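 Cells plated overnight at 1500 cells/well, then exposed to library compounds with dopamine controls for 90 minutes at 37 degrees C. DiscoveRx reagent added for 30–60 minutes at room temperature; luminescence read, quantitative HTS format.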
% is set by controls: 0 for no effect and ±100 for the full control effect.

Protein sequences, listed by entry. Tags and fused reporters are not part of them.
UniProt P35462, whole entry, looked up: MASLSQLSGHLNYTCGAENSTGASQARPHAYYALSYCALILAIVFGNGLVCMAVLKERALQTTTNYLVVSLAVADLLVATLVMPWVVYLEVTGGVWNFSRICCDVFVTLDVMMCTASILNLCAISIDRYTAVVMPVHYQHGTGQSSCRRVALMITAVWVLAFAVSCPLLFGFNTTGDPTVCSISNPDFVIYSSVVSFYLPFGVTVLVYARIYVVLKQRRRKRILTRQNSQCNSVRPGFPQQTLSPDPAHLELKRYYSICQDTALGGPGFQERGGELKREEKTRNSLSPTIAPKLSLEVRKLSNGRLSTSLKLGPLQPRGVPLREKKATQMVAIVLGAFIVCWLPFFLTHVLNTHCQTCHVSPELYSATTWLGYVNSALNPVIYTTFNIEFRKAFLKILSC

SMILES | max response, negative = inhibition
CC(NCC(O)COc1ccccc1)C1COc2ccccc2O1 (centres undefined) | active: -85.4%
O=[N+]([O-])c1cccc(N=Nc2ccc(O)cc2O)c1 | inconclusive: -47.4%
COc1cc(CNc2ccc3c(c2)OCCO3)ccc1OCC(N)=O | inconclusive: -40.7%
CCCC(=O)N1CCCC1(C)C(=O)NCc1ccc(F)cc1Cl (centres undefined) | inactive: 24.9%
CCCOc1ccc(N2C(=O)CC(N(Cc3ccc(S(N)(=O)=O)cc3)C(=O)CC)C2=O)cc1 (centres undefined) | inconclusive: -48%
NC(=O)c1ccccc1OCC(=O)N1CCC(Cc2ccccc2)CC1 | inactive: 14.8%
O=C(NC(NNc1ccc([N+](=O)[O-])cc1)(C(F)(F)F)C(F)(F)F)c1ccc(F)cc1 | inactive: -3.76%
CCOC(=O)[C@@H](CCc1ccccc1)N[C@H](C)C(=O)N1[C@H](C(=O)O)C[C@@H]2CCC[C@@H]21 | active: -53.9%
CC(=O)C1=C(O)C(=O)N(c2nccs2)C1c1ccccc1F (centres undefined) | inactive: 24.2%
OC(COc1ccccc1)CN1CCN(C(c2ccccc2)c2ccccc2)CC1 (centres undefined) | active: -95.5%
O=c1c2ccccc2cnn1Cc1n[nH]c(=S)n1-c1cc(Cl)cc(Cl)c1 | active: -56.8%
CCn1c(O)c(N=NC(=O)CNC(=O)c2ccccc2F)c2ccccc21 | active: -74.3%
C=CCC1(O)C(=O)Nc2ccccc21 (centres undefined) | inconclusive: -31.4%
CCCC(=O)Nc1nc2ccc(OC)cc2s1 | inactive: 30.4%
NC(N)=NS(=O)(=O)c1ccc(N=C2C(=O)Nc3ccccc32)cc1 | inconclusive: -35.7%
Cc1cc(/C=N/n2cnnc2)c(O)c([N+](=O)[O-])c1 | active: -62.5%
Cc1ccccc1-c1nc(NCCN(C)C)nc2ccsc12 | inconclusive: -35.4%
NC(=O)c1cccc(-c2ccnc3c2CC(C(=O)NCc2ccc(F)c(F)c2)O3)c1 (centres undefined) | inconclusive: -39.6%
COC(=O)c1ccc(NC(=O)c2cccc(C)c2)cc1 | active: -51.7%
CN(c1ccc(C(=O)N2CCN(Cc3ccc4c(c3)OCO4)CC2)cc1)S(=O)(=O)c1ccccc1 | inconclusive: -33.6%
CC1CCN(C(=O)CSc2nc3ncccc3[nH]2)CC1 | inconclusive: -33.2%
CC(Oc1ccccc1)C(=O)Nc1ccc(C(N)=O)cc1 (centres undefined) | inconclusive: -39.5%
C/C(=C\c1ccccc1)CN1CCN(Cc2ccc(C)o2)C(CCO)C1 (centres undefined) | active: -79.7%

SMILES | max response, negative = inhibition
COCCN(C(=O)COC(=O)Cc1ccc(Cl)cc1Cl)c1c(N)n(Cc2ccccc2)c(=O)[nH]c1=O | inactive: 9.99%
O=C(CC1(O)C(=O)Nc2cc(Cl)cc(Cl)c21)c1ccccc1O (centres undefined) | inconclusive: -45.9%
COC(=O)CCN(C1CCCCC1)S(=O)(=O)c1ccc(S(=O)(=O)N2CCCCC2)cc1 | inactive: -15.9%
C/C(=N\NC(=O)c1cc2ccccc2cc1O)c1ccc(C)o1 | inconclusive: -31.7%
O=C(O)c1cccc(-n2sc3ccccc3c2=O)c1 | inconclusive: -41.4%
CCCCC1Cc2[nH][nH]c(=O)c2C(c2ccc(F)cc2)O1 (centres undefined) | inactive: 0%
C=CCc1ccc(OCCN2CCc3ccccc3C2)c(OC)c1 | active: -74.7%
CC(=O)c1ccc(NC(=O)CSC(C)C)cc1 | inconclusive: -42.6%
Cc1cc(C)nc(SCc2nnc(SCC(=O)Nc3ccccc3C)n2Cc2ccco2)n1 | inconclusive: -40.4%
O=C(/C=C/c1cccc([N+](=O)[O-])c1)Nc1ccc(NC(=O)c2cccs2)cc1 | inconclusive: -38.8%
Cc1csc(C(C)N(C)C(=O)c2ccc(OC3CCN(Cc4ccccn4)CC3)cc2)n1 (centres undefined) | inconclusive: -34.2%
COc1ccc(-c2cc(C(=O)N/N=C(\C)c3cccnc3)c3ccccc3n2)cc1 | inconclusive: -31.1%
COc1ccc(OC)c(NC(=O)Nc2cc(NC(=O)Nc3cc(OC)ccc3OC)c(C)nc2C)c1 | inconclusive: -31.8%
S=C(NN=Cc1ccc2c(c1)OCO2)NN=Cc1ccc2c(c1)OCO2 | inactive: -10.1%
CCN1C(=O)CSc2ccc(C(=O)NCc3ccc(OC)cc3)cc21 | inconclusive: -36.4%
O=C(NC1CCCCC1)C(c1cccs1)N(Cc1cccs1)C(=O)c1cccs1 (centres undefined) | inactive: -7.56%
CCCc1cc(Nc2c(C)n(C)n(-c3ccccc3)c2=O)n2c(nc3ccccc32)c1C#N | inconclusive: -38.2%
CC(=O)c1ccc(NC(=O)Cc2cccs2)cc1 | inconclusive: -33.2%
COc1ccc(-c2nc(C#N)c(NCc3ccccc3Cl)o2)cc1 | inactive: 2.44%
CN(CC(=O)NC1CCN(Cc2ccccc2)CC1)S(=O)(=O)c1ccc(Cl)s1 | active: -58.6%
Nc1cc2nc3ccccc3oc-2cc1=O | inconclusive: -30.6%
CC1=C(C)CS(=O)N(c2ccc(S(N)(=O)=O)cc2)C1 (centres undefined) | inconclusive: -41.8%
CCN(CC)c1nc(-c2cccc(OC)c2O)nc2ccccc12 | inconclusive: -33.8%

SMILES | max response, negative = inhibition
Cc1ccc(C2CCN(C(=O)Nc3ccccc3)C2)cc1 (centres undefined) | inactive: -8.36%
O=C(CSc1n[nH]c(=O)[nH]c1=O)Nc1ccccc1C(=O)c1ccccc1 | inconclusive: -39.6%
Oc1ccccc1/C=N/Nc1ccnc(SCc2ccccc2)n1 | active: -69.4%
Fc1ccc(Sc2cc(Cl)c(-c3ccccc3)nn2)cc1 | inactive: 0%
CCSc1nc2ccccc2n1C(=O)/C=C/c1ccc(OC)c(OC)c1 | active: -51.2%
Cc1nc(Nc2ccc(Cl)c(Cl)c2)sc1C(/C=C/c1ccc2c(c1)OCO2)=NNc1ccc([N+](=O)[O-])cc1[N+](=O)[O-] | inconclusive: -35.5%
COc1ccc(-c2coc3c(C(=O)NCc4ccc(OC)c(OC)c4)cccc23)c(C)c1 | inactive: 74.4%
COc1ccc(/C=C/c2ccc3cccc(O)c3n2)cc1Br | inconclusive: -31.4%
COCC(=O)NC1CC2CCCC(C1)N2Cc1ccccc1 (centres undefined) | active: -77.5%
CCN(CC)c1ccc(NC(=O)COC(=O)C23CCC(=O)N2c2ccccc2S3)cc1 (centres undefined) | inconclusive: -34.6%
Cc1cc(F)ccc1S(=O)(=O)NCC(c1ccc2c(c1)OCO2)N1CCOCC1 (centres undefined) | inconclusive: -45.9%
COc1ccc(OC)c(CN2C(=O)CCC2(C)c2nnnn2Cc2ccccc2)c1 (centres undefined) | inconclusive: -41.4%
CN(Cc1ccc(Cl)c(Cl)c1)C(C(=O)NCc1ccccc1)c1ccco1 (centres undefined) | inactive: -16.2%
Cc1cc(C)c2c(n1)SCC(=O)N2CC(=O)Nc1ccccc1Cl | inconclusive: -36.1%
CC(C)N(C(C)C)S(=O)(=O)c1ccc(NN)nc1 | inconclusive: -43.5%
Cc1ccc2oc(C(=O)N(Cc3ccncc3)CC3CCCO3)c(C)c2c1 (centres undefined) | inactive: -8.15%
Cc1ccc(S(=O)(=O)N2[C@@H](c3ccccc3)C(C(=O)O)=CC[C@H]2c2ccc(C(C)C)cc2)cc1 | inconclusive: -33.8%
Cc1ccccc1NC(=S)NNc1ncc(C(F)(F)F)cc1Cl | active: -93.1%
O=C(O)/C=C/C(=O)Nc1ccc(N2CCOCC2)nc1N1CCOCC1 | inactive: -9.85%
CCn1c(C)c(CCC(=O)O)c(=O)n2nc(-c3ccccc3OC)cc12 | inconclusive: -36.5%
COc1ccc([C@H]2CC(=O)C=C(c3ccc(SC)cc3)C2)cc1 | inconclusive: -36.1%
Cc1cccc(-c2nc(C#N)c(N3CCCCCC3)o2)c1 | inactive: -29.7%
COc1ccc(N(CCC(=O)Nc2ccccc2F)S(=O)(=O)c2ccc(C)cc2C)cc1 | inactive: 3.17%

SMILES | max response, negative = inhibition
CC1S/C(=C(\C#N)C(=O)NCc2ccco2)N(Cc2ccco2)C1=O (centres undefined) | inconclusive: -37.2%
CCOC(=O)C(C(=O)N(C)C)c1ncc(C(F)(F)F)cc1Cl (centres undefined) | inconclusive: -42.9%
NC1=C(Br)C(=O)c2ncccc2C1=O | inconclusive: -39%
N#CC1=C(N)C2=CCCC[C@H]2[C@H](c2cccc(F)c2)C1(C#N)C#N | inactive: -5.94%
CCC1CCCCN1Cc1ccc(CNS(=O)(=O)c2ccc3c(c2)oc(=O)n3C)o1 (centres undefined) | inconclusive: -46%
CCC(=O)N1N=C(c2ccccc2)CC1c1ccccc1 (centres undefined) | inactive: -2.83%
COCCNc1nc(NCc2cnc(C)cn2)c2sccc2n1 | inactive: 22.9%
Cc1cc(=O)oc2cc(OCC(=O)N3CCCC3)ccc12 | inconclusive: -35.3%
CN1C(CC(=O)c2ccccc2)CCCC1CC(O)c1ccccc1 (centres undefined) | active: -80.5%
Cc1ccc(-c2cc(C(=O)NCc3ccco3)c3ccccc3n2)o1 | inconclusive: -33.9%
C/C(=N\Nc1ccc(S(=O)(=O)Nc2ccc(Cl)cc2)cc1[N+](=O)[O-])c1ccc(N2CCOCC2)cc1 | inconclusive: -31.8%
CCNC(=O)C1CCCN(C(=O)Cc2ccc3ccccc3c2)CC1 (centres undefined) | inconclusive: -34%
COCc1cc(C)nc(OCC(=O)N/N=C/c2ccccc2)c1C#N | inactive: 0.219%
N#Cc1c(/N=C/c2ccco2)sc2c1CCC2 | inconclusive: -40.1%
CC1=NNC(=O)/C1=C\c1cn(-c2ccccc2)nc1-c1ccc(F)cc1 | active: -69.3%
CCCCc1ccc(NC(=S)Nc2ccc(Nc3ccc(OC)cc3)cc2)cc1 | active: -80.5%
OC(c1ccccc1)(c1ccccc1)C1CCN(CCCOc2ccc(F)cc2)CC1 | active: -95.2%
CC(=O)N1CCCN(Cc2cn(-c3ccc(C)cc3)nc2-c2cccc(C)c2)CC1 | inconclusive: -39.1%
CN(CC1CCOCC1)C(=O)CC1C(=O)NCCN1CC(c1ccccc1)c1ccccc1 (centres undefined) | inconclusive: -36.6%
N#CCCN/N=C(/Cc1nc2ccccc2[nH]1)c1cccc(Cl)c1 | inconclusive: -35.6%

For reference, 25 of the compounds above.
SMILES | max response, negative = inhibition
Cc1ccccc1NC(=S)NNc1ncc(C(F)(F)F)cc1Cl | active: -93.1%
O=C(O)/C=C/C(=O)Nc1ccc(N2CCOCC2)nc1N1CCOCC1 | inactive: -9.85%
CCn1c(C)c(CCC(=O)O)c(=O)n2nc(-c3ccccc3OC)cc12 | inconclusive: -36.5%
COc1ccc([C@H]2CC(=O)C=C(c3ccc(SC)cc3)C2)cc1 | inconclusive: -36.1%
Cc1cccc(-c2nc(C#N)c(N3CCCCCC3)o2)c1 | inactive: -29.7%
COc1ccc(N(CCC(=O)Nc2ccccc2F)S(=O)(=O)c2ccc(C)cc2C)cc1 | inactive: 3.17%
CC1S/C(=C(\C#N)C(=O)NCc2ccco2)N(Cc2ccco2)C1=O (centres undefined) | inconclusive: -37.2%
CCOC(=O)C(C(=O)N(C)C)c1ncc(C(F)(F)F)cc1Cl (centres undefined) | inconclusive: -42.9%
NC1=C(Br)C(=O)c2ncccc2C1=O | inconclusive: -39%
N#CC1=C(N)C2=CCCC[C@H]2[C@H](c2cccc(F)c2)C1(C#N)C#N | inactive: -5.94%
CCC1CCCCN1Cc1ccc(CNS(=O)(=O)c2ccc3c(c2)oc(=O)n3C)o1 (centres undefined) | inconclusive: -46%
CCC(=O)N1N=C(c2ccccc2)CC1c1ccccc1 (centres undefined) | inactive: -2.83%
COCCNc1nc(NCc2cnc(C)cn2)c2sccc2n1 | inactive: 22.9%
Cc1cc(=O)oc2cc(OCC(=O)N3CCCC3)ccc12 | inconclusive: -35.3%
CN1C(CC(=O)c2ccccc2)CCCC1CC(O)c1ccccc1 (centres undefined) | active: -80.5%
Cc1ccc(-c2cc(C(=O)NCc3ccco3)c3ccccc3n2)o1 | inconclusive: -33.9%
C/C(=N\Nc1ccc(S(=O)(=O)Nc2ccc(Cl)cc2)cc1[N+](=O)[O-])c1ccc(N2CCOCC2)cc1 | inconclusive: -31.8%
CCNC(=O)C1CCCN(C(=O)Cc2ccc3ccccc3c2)CC1 (centres undefined) | inconclusive: -34%
COCc1cc(C)nc(OCC(=O)N/N=C/c2ccccc2)c1C#N | inactive: 0.219%
N#Cc1c(/N=C/c2ccco2)sc2c1CCC2 | inconclusive: -40.1%
CC1=NNC(=O)/C1=C\c1cn(-c2ccccc2)nc1-c1ccc(F)cc1 | active: -69.3%
CCCCc1ccc(NC(=S)Nc2ccc(Nc3ccc(OC)cc3)cc2)cc1 | active: -80.5%
OC(c1ccccc1)(c1ccccc1)C1CCN(CCCOc2ccc(F)cc2)CC1 | active: -95.2%
CC(=O)N1CCCN(Cc2cn(-c3ccc(C)cc3)nc2-c2cccc(C)c2)CC1 | inconclusive: -39.1%
CN(CC1CCOCC1)C(=O)CC1C(=O)NCCN1CC(c1ccccc1)c1ccccc1 (centres undefined) | inconclusive: -36.6%

— PubChem BioAssay AID652054 (National Center for Advancing Translational Sciences (NCATS), 2013)
